These results are taken from US20060183130A1 (VANDERBILT UNIVERSITY, published 2006).

Protein sequences, listed by entry. Tags and fused reporters are not part of them. Residues count along the entry.
UniProt P01108, residues 16-454: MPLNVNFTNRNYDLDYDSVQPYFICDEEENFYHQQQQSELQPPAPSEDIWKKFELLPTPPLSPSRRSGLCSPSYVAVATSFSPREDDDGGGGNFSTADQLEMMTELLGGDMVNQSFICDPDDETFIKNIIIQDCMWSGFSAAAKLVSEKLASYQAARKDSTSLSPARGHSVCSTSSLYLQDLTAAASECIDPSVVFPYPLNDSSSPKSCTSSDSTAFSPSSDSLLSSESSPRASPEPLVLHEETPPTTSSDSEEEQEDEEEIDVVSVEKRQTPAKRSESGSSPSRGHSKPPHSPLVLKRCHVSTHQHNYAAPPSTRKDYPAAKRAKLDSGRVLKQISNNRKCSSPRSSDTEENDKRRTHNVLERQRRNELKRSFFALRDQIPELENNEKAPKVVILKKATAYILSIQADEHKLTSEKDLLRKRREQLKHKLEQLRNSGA

These are yes or no findings as the source states them, for the method shown. Binding seen in cells or lysates may run through a third protein. Some binding calls cover weakened binding; strength is not graded here. Tags and fused reporters may be left off the sequences shown.

The target of this assay is c-Myc (exogenous, full length, expressed from pRcCMV-Myc2) (UniProt P01108). The assay is described as follows: co-IP (data not shown).

In the case of KFVRSRRPRTASCALAFVN (peptide, not shown: large carriers) [GFP-ARF 26-44], the binding result is listed as “binds”.
